# The supplement of paper PMC8728848
# Some of the results follow.
# B1: Clec12b (Mus musculus), Q149M0 (protein)
# chain: MSDEVTYATLMLQDSARVRGNQDGNNLRKEGHPAQSSLWRGAALSLMTLCLVLVTGLVTLATMFLQVSNDINSDSEKLSQLQKSIHPQQDNLSESLNSSRKSLTEESLQSQISALLERQEQMATKLCKEFLIHASDHKCNPCPKTWQWYGNSCYYFSINEEKSWSDSRKDCIDKNATLVKIDSTEERDLLQSQLSLTFSFFWLGLSWNSSGRNWLWEDGSFPPPTLFSDKELASFNGSRDCAYFERGNIYASRCSAEIPWICEKTASLVKTEDLD
# Legend:
# Experiment in all cases: glycan array binding signal (z-score within array); higher = stronger binding
# Details in all cases: glycan notation: IUPAC condensed, linker removed
# [1] = molecular target: Neu5Ac(a2-3)Gal(b1-4)GlcNAc(b1-3)[Neu5Ac(a2-3)Gal(b1-4)GlcNAc(b1-6)]GalNAc
# In short: (§1)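 The Consortium for Functional Glycomics database supplied 3228 glycan arrays, of which those lacking an available protein sequence were dropped. The binding signal, a within-array Z-score, was averaged across arrays of the same protein sequence and across linkers. Negative scores can be read as non-binding.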
# [2] = molecular target: Neu5Ac(a2-3)Gal(b1-4)GlcNAc(b1-6)GalNAc
# In short: as §1
# [3] = molecular target: Neu5Ac(a2-3)Gal(b1-4)GlcNAc(b1-6)[Gal(b1-3)]GalNAc
# In short: as §1
# [4] = molecular target: Neu5Ac(a2-3)Gal(b1-4)GlcNAc(b1-6)[Neu5Ac(a2-3)Gal(b1-3)]GalNAc
# In short: as §1
# [5] = molecular target: Neu5Ac(a2-3)Gal(b1-4)GlcNAc6S
# In short: as §1
# [6] = molecular target: Neu5Ac(a2-3)Gal(b1-4)[Fuc(a1-3)]GlcNAc
# In short: as §1
# [7] = molecular target: Neu5Ac(a2-3)Gal(b1-4)[Fuc(a1-3)]GlcNAc(b1-2)Man
# In short: as §1
# [8] = molecular target: Neu5Ac(a2-3)Gal(b1-4)[Fuc(a1-3)]GlcNAc(b1-3)Gal
# In short: as §1
# [9] = molecular target: Neu5Ac(a2-3)Gal(b1-4)[Fuc(a1-3)]GlcNAc(b1-3)Gal(b1-4)GlcNAc
# In short: as §1
# [10] = molecular target: Neu5Ac(a2-3)Gal(b1-4)[Fuc(a1-3)]GlcNAc(b1-3)Gal(b1-4)[Fuc(a1-3)]GlcNAc(b1-3)Gal(b1-4)[Fuc(a1-3)]GlcNAc
# In short: as §1
# [11] = molecular target: Neu5Ac(a2-3)Gal(b1-4)[Fuc(a1-3)]GlcNAc(b1-3)GalNAc
# In short: as §1
# [12] = molecular target: Neu5Ac(a2-3)Gal(b1-4)[Fuc(a1-3)]GlcNAc(b1-6)[Gal(b1-3)]GalNAc
# In short: as §1
# [13] = molecular target: Neu5Ac(a2-3)Gal(b1-4)[Fuc(a1-3)]GlcNAc(b1-6)[Neu5Ac(a2-3)Gal(b1-3)]GalNAc
# In short: as §1
# [14] = molecular target: Neu5Ac(a2-3)Gal(b1-4)[Fuc(a1-3)]GlcNAc6S
# In short: as §1
# [15] = molecular target: Neu5Ac(a2-3)Gal6S(b1-4)GlcNAc
# In short: as §1
# [16] = molecular target: Neu5Ac(a2-3)Gal6S(b1-4)[Fuc(a1-3)]GlcNAc
# In short: as §1
# [17] = molecular target: Neu5Ac(a2-3)GalNAc
# In short: as §1
# [18] = molecular target: Neu5Ac(a2-3)GalNAc(b1-4)GlcNAc
# In short: as §1
# [19] = molecular target: Neu5Ac(a2-3)[GalNAc(b1-4)]Gal(b1-4)Glc
# In short: as §1
# [20] = molecular target: Neu5Ac(a2-3)[GalNAc(b1-4)]Gal(b1-4)GlcNAc
# In short: as §1
# [21] = molecular target: Neu5Ac(a2-3)[GalNAc(b1-4)]Gal(b1-4)GlcNAc(b1-3)GalNAc
# In short: as §1
# [22] = molecular target: Neu5Ac(a2-3)[Neu5Ac(a2-6)]GalNAc
# In short: as §1
# [23] = molecular target: Neu5Ac(a2-6)Gal
# In short: as §1
# [24] = molecular target: Neu5Ac(a2-6)Gal(b1-3)GlcNAc(b1-3)[Gal(b1-4)GlcNAc(b1-6)]Gal(b1-4)Glc
# In short: as §1
# [25] = molecular target: Neu5Ac(a2-6)Gal(b1-4)Glc
# In short: as §1
# [26] = molecular target: Neu5Ac(a2-6)Gal(b1-4)GlcNAc
# In short: as §1
# [27] = molecular target: Neu5Ac(a2-6)Gal(b1-4)GlcNAc(b1-2)Man
# In short: as §1
# [28] = molecular target: Neu5Ac(a2-6)Gal(b1-4)GlcNAc(b1-2)Man(a1-3)Man(b1-4)GlcNAc(b1-4)GlcNAc
# In short: as §1
# [29] = molecular target: Neu5Ac(a2-6)Gal(b1-4)GlcNAc(b1-2)Man(a1-3)[Gal(b1-4)GlcNAc(b1-2)Man(a1-6)]Man(b1-4)GlcNAc(b1-4)GlcNAc
# In short: as §1
# [30] = molecular target: Neu5Ac(a2-6)Gal(b1-4)GlcNAc(b1-2)Man(a1-3)[GlcNAc(b1-2)Man(a1-6)]Man(b1-4)GlcNAc(b1-4)GlcNAc
# In short: as §1
# [31] = molecular target: Neu5Ac(a2-6)Gal(b1-4)GlcNAc(b1-2)Man(a1-3)[GlcNAc(b1-4)][Neu5Ac(a2-6)Gal(b1-4)GlcNAc(b1-2)Man(a1-6)]Man(b1-4)GlcNAc(b1-4)GlcNAc
# In short: as §1
# [32] = molecular target: Neu5Ac(a2-6)Gal(b1-4)GlcNAc(b1-2)Man(a1-3)[Man(a1-6)]Man(b1-4)GlcNAc(b1-4)GlcNAc
# In short: as §1
# [33] = molecular target: Neu5Ac(a2-6)Gal(b1-4)GlcNAc(b1-2)Man(a1-3)[Neu5Ac(a2-3)Gal(b1-4)GlcNAc(b1-2)Man(a1-6)]Man(b1-4)GlcNAc(b1-4)GlcNAc
# In short: as §1
# [34] = molecular target: Neu5Ac(a2-6)Gal(b1-4)GlcNAc(b1-2)Man(a1-3)[Neu5Ac(a2-6)Gal(b1-4)GlcNAc(b1-2)Man(a1-6)]Man(b1-4)GlcNAc(b1-4)GlcNAc
# In short: as §1
# [35] = molecular target: Neu5Ac(a2-6)Gal(b1-4)GlcNAc(b1-2)Man(a1-3)[Neu5Ac(a2-6)Gal(b1-4)GlcNAc(b1-2)Man(a1-6)]Man(b1-4)GlcNAc(b1-4)[Fuc(a1-6)]GlcNAc
# In short: as §1
# [36] = molecular target: Neu5Ac(a2-6)Gal(b1-4)GlcNAc(b1-2)Man(a1-6)Man(b1-4)GlcNAc(b1-4)GlcNAc
# In short: as §1
# [37] = molecular target: Neu5Ac(a2-6)Gal(b1-4)GlcNAc(b1-2)Man(a1-6)[Gal(b1-4)GlcNAc(b1-2)Man(a1-3)]Man(b1-4)GlcNAc(b1-4)GlcNAc
# In short: as §1
# [38] = molecular target: Neu5Ac(a2-6)Gal(b1-4)GlcNAc(b1-2)Man(a1-6)[GlcNAc(b1-2)Man(a1-3)]Man(b1-4)GlcNAc(b1-4)GlcNAc
# In short: as §1
# [39] = molecular target: Neu5Ac(a2-6)Gal(b1-4)GlcNAc(b1-2)Man(a1-6)[Man(a1-3)]Man(b1-4)GlcNAc(b1-4)GlcNAc
# In short: as §1
# [40] = molecular target: Neu5Ac(a2-6)Gal(b1-4)GlcNAc(b1-2)[Neu5Ac(a2-6)Gal(b1-4)GlcNAc(b1-4)]Man(a1-3)[GlcNAc(b1-4)][Neu5Ac(a2-6)Gal(b1-4)GlcNAc(b1-2)[Neu5Ac(a2-6)Gal(b1-4)GlcNAc(b1-6)]Man(a1-6)]Man(b1-4)GlcNAc(b1-4)GlcNAc
# In short: as §1
# [41] = molecular target: Neu5Ac(a2-6)Gal(b1-4)GlcNAc(b1-2)[Neu5Ac(a2-6)Gal(b1-4)GlcNAc(b1-4)]Man(a1-3)[GlcNAc(b1-4)][Neu5Ac(a2-6)Gal(b1-4)GlcNAc(b1-4)Man(a1-6)]Man(b1-4)GlcNAc(b1-4)GlcNAc
# In short: as §1
# [42] = molecular target: Neu5Ac(a2-6)Gal(b1-4)GlcNAc(b1-2)[Neu5Ac(a2-6)Gal(b1-4)GlcNAc(b1-6)]Man(a1-6)[Neu5Ac(a2-6)Gal(b1-4)GlcNAc(b1-2)Man(a1-3)][GlcNAc(b1-4)]Man(b1-4)GlcNAc(b1-4)GlcNAc
# In short: as §1
# [43] = molecular target: Neu5Ac(a2-6)Gal(b1-4)GlcNAc(b1-3)Gal(b1-3)GlcNAc
# In short: as §1
# [44] = molecular target: Neu5Ac(a2-6)Gal(b1-4)GlcNAc(b1-3)Gal(b1-4)GlcNAc
# In short: as §1
# [45] = molecular target: Neu5Ac(a2-6)Gal(b1-4)GlcNAc(b1-3)Gal(b1-4)GlcNAc(b1-2)Man(a1-3)[Neu5Ac(a2-6)Gal(b1-4)GlcNAc(b1-3)Gal(b1-4)GlcNAc(b1-2)Man(a1-6)]GalNAc
# In short: as §1
# [46] = molecular target: Neu5Ac(a2-6)Gal(b1-4)GlcNAc(b1-3)Gal(b1-4)GlcNAc(b1-3)Gal(b1-4)GlcNAc
# In short: as §1
binder,measurement,setting,value
B1,glycan array binding signal (z-score),[1],0.725
same,glycan array binding signal (z-score),[2],2.19
same,glycan array binding signal (z-score),[3],-0.442
same,glycan array binding signal (z-score),[4],1.17
same,glycan array binding signal (z-score),[5],-0.702
same,glycan array binding signal (z-score),[6],-0.514
same,glycan array binding signal (z-score),[7],-0.749
same,glycan array binding signal (z-score),[8],-0.097
same,glycan array binding signal (z-score),[9],-0.279
same,glycan array binding signal (z-score),[10],-0.548
same,glycan array binding signal (z-score),[11],0.688
same,glycan array binding signal (z-score),[12],2.54
same,glycan array binding signal (z-score),[13],2.04
same,glycan array binding signal (z-score),[14],-0.325
same,glycan array binding signal (z-score),[15],-0.451
same,glycan array binding signal (z-score),[16],-0.642
same,glycan array binding signal (z-score),[17],-0.487
same,glycan array binding signal (z-score),[18],-0.65
same,glycan array binding signal (z-score),[19],0.035
same,glycan array binding signal (z-score),[20],-0.538
same,glycan array binding signal (z-score),[21],-0.509
same,glycan array binding signal (z-score),[22],0.196
same,glycan array binding signal (z-score),[23],-0.669
same,glycan array binding signal (z-score),[24],-0.06
same,glycan array binding signal (z-score),[25],-0.45
same,glycan array binding signal (z-score),[26],-0.563
same,glycan array binding signal (z-score),[27],-0.491
same,glycan array binding signal (z-score),[28],-0.558
same,glycan array binding signal (z-score),[29],-0.254
same,glycan array binding signal (z-score),[30],-0.701
same,glycan array binding signal (z-score),[31],-0.558
same,glycan array binding signal (z-score),[32],-0.656
same,glycan array binding signal (z-score),[33],-0.659
same,glycan array binding signal (z-score),[34],-0.64
same,glycan array binding signal (z-score),[35],-0.061
same,glycan array binding signal (z-score),[36],-0.789
same,glycan array binding signal (z-score),[37],0.626
same,glycan array binding signal (z-score),[38],-0.685
same,glycan array binding signal (z-score),[39],-0.428
same,glycan array binding signal (z-score),[40],-0.381
same,glycan array binding signal (z-score),[41],-0.46
same,glycan array binding signal (z-score),[42],-0.735
same,glycan array binding signal (z-score),[43],-0.688
same,glycan array binding signal (z-score),[44],-0.611
same,glycan array binding signal (z-score),[45],0.298
same,glycan array binding signal (z-score),[46],-0.719

# Fetched one by one from the entries so far:
binder,measurement,setting,value
B1,glycan array binding signal (z-score),[22],0.196
same,glycan array binding signal (z-score),[40],-0.381
same,glycan array binding signal (z-score),[28],-0.558
